Experimental data as given in PubChem BioAssay AID504834 (National Center for Advancing Translational Sciences (NCATS), 2011).
The whole screen tested about 320,000 compounds, of which about 22,000 (6.9%) were called active. The shares of active, inactive and inconclusive entries below differ from those in the screen. Calls follow the shape of the dose curve; as a rule, active = well fitted inhibition curve with a large enough effect; inconclusive = small, poorly fitted or top-dose-only effect, or another doubt; inactive = no such curve, though single readings can be large or run the other way. Potencies beside an inconclusive call are fits to weak or partial responses and may not hold up.
% is scaled to controls: 0 for no effect and ±100 for the full control effect; potency is read from the fitted curve at half-maximal effect.

Experiment: Primary qHTS for delayed death inhibitors of the malarial parasite plastid, 96 hour incubation
Details: P. falciparum luciferase reporter growth; series mostly up to 28.7 µM; activity change, negative = inhibition: at the top concentration
Summary of the method: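 Cell-based qHTS: luciferase-tagged P. falciparum in erythrocytes (2% hematocrit, 0.05% parasitemia final) incubated with compounds for 96 hours, 37 C, 5% CO2; luciferase detection reagent then added and luminescence measured.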
With `c1ccc(Oc2ccc(-c3ccnc4ncnn34)cc2)cc1` the “activity change, negative = inhibition” value was inactive: -3.02%.
For `CCc1ccccc1NC(=O)CN1CCN(C(=O)CNC(=O)Cc2cccc3ccccc23)CC1`, the Potency was inconclusive: 18.5 µM [inhibitor, single point].
For `O=C(NCc1ccccc1Cl)C(=O)NCC1OCCN1S(=O)(=O)c1cccs1` (stereo not given), the “activity change, negative = inhibition” value was inactive: -14.3%.
With `Cc1nn(Cc2ccccc2)c(C)c1NC(=O)CCCn1nc(C)c([N+](=O)[O-])c1C` the Potency was inconclusive: 3.7 µM [inhibitor, full curve, poor fit].
With `O=C(COc1ccc(Br)cc1Br)NNC(=O)c1cccs1` the “activity change, negative = inhibition” value was inactive: 1.24%.
In the case of `COc1ccc(C2OC(=O)CC2C(=O)NCc2ccc(Cl)cc2)cc1OC` (stereo not given), the “activity change, negative = inhibition” value is reported as inactive: 39%.
With `CCc1ccc(NC(=O)CCS(=O)(=O)c2ccc3c(c2)CCN3C(C)=O)cc1` the Potency was inconclusive: 18.5 µM [inhibitor, single point].
With `Cc1ccc([N+](=O)[O-])cc1S(=O)(=O)NCCc1c(C)[nH]c2c(C)cccc12` the Potency was active: 9.28 µM.
With `COC(=O)Cc1ccc2oc(-c3cccnc3)nc2c1` the “activity change, negative = inhibition” value was inactive: 36.9%.
In the case of `COc1ccc(N(CCCN2C(=O)c3cccc4cccc(c34)C2=O)C(=O)c2cccnc2)cc1`, the “activity change, negative = inhibition” value is reported as inactive: -24.3%.
In the case of `CC1(C)CC(=O)C2=C(C1)Nc1ccccc1NC2c1cccc(F)c1` (stereo not given), the “activity change, negative = inhibition” value is reported as inactive: -11.1%.
With `CC(=O)c1c(C)n(CC(=O)NCc2ccc3c(c2)OCO3)c2ccccc12` the “activity change, negative = inhibition” value was inactive: -3.1%.
With `CCCCCCn1c(=O)[nH]c2nc3cc(N)c(C)cc3nc2c1=O` the Potency was inconclusive: 1.31 µM [inhibitor, partial curve, poor fit].
For `Cc1ccn2c(=O)nc(SCC(=O)N3CCC(C)CC3)nc2c1`, the Potency was inconclusive: 11.7 µM [inhibitor, partial curve, poor fit].
In the case of `Cc1ccc(S(=O)(=O)N2CCN(C(=O)COC(=O)c3ccc([N+](=O)[O-])o3)CC2)c(C)c1`, the Potency is reported as inconclusive: 11.7 µM [inhibitor, partial curve, poor fit].
With `CC(=O)C1=C(O)C(=O)N(c2cccc(Br)c2)C1c1ccccc1Cl` (stereo not given) the Potency was inconclusive: 13.1 µM [inhibitor, single point].
With `CCOC(=O)c1c(C=O)c(C)n(Cc2ccccc2)c1C` the “activity change, negative = inhibition” value was inactive: 23%.
For `O=Cc1cnc2ccccc2c1-c1ccccc1`, the Potency was inconclusive: 14.7 µM [inhibitor, single point].
In the case of `CCOC(=O)[C@@H]1[C@H]2COc3ccccc3[C@@H]2N2C(=O)N(c3ccccc3)C(=O)[C@]12C`, the “activity change, negative = inhibition” value is reported as inactive: 23.1%.
With `COc1ccccc1NC(=O)C1=C(C)N(c2ccccc2)C(=S)NC1c1cccc(C(F)(F)F)c1` (stereo not given) the Potency was inconclusive: 0.415 µM [inhibitor, full curve].
In the case of `CC(C)Oc1cccc(-c2cc(C(=O)NN3CCOCC3)c3ccccc3n2)c1`, the Potency is reported as inconclusive: 4.65 µM [inhibitor, partial curve, poor fit].
In the case of `Cc1ccc(NC(=O)CN2CCN(c3ccccn3)CC2)c(Cl)c1`, the Potency is reported as inconclusive: 10.4 µM [inhibitor, single point].
With `CC(C(=O)O)n1nnc2ccccc21` (stereo not given) the “activity change, negative = inhibition” value was inactive: 58.4%.
With `CN1C(=O)C(C)(C)c2cc(S(=O)(=O)N3CCCC(C(=O)NCc4ccc(Cl)cc4)C3)ccc21` (stereo not given) the Potency was inconclusive: 0.0026 µM [inhibitor, full curve, poor fit].
With `Cc1nn(C)c(C(=O)NC(=S)Nc2ccccc2Br)c1Cl` the “activity change, negative = inhibition” value was inactive: 51.4%.
In the case of `Cc1ccc(S(=O)(=O)N(CC(=O)NCc2ccncc2)C2CCCCC2)cc1`, the Potency is reported as active: 8.28 µM.
In the case of `CSCCC(NC(=O)c1ccccc1)C(=O)N1CC=C(c2ccccc2)CC1` (stereo not given), the Potency is reported as inconclusive: 6.57 µM [inhibitor, partial curve].
For `Cc1ccc(C(C)C)c(OCCNC(=O)c2cncc(Br)c2)c1`, the Potency was inconclusive: 18.5 µM [inhibitor, single point].
With `O=C(O)CSCC(=O)NCc1c(Cl)cccc1Oc1ccccc1` the “activity change, negative = inhibition” value was inactive: 21.3%.
With `CCC(Oc1ccccc1C)C(=O)Nc1ccc(S(=O)(=O)Nc2cc(C)on2)cc1` (stereo not given) the Potency was inconclusive: 0.738 µM [inhibitor, partial curve, poor fit].
In the case of `O=C(c1ccccc1)N1CCN(C(=O)c2cccnc2)CC1`, the Potency is reported as inconclusive: 18.5 µM [inhibitor, single point].
With `CCC1CN(S(=O)(=O)c2cc(-c3cc(C)no3)ccc2OC)c2cc(C)ccc2O1` (stereo not given) the Potency was inconclusive: 10.4 µM [inhibitor, partial curve].
With `COc1cc2cc(CCOC(=O)N3CCCCC3)oc(=O)c2cc1OC` the Potency was inconclusive: 4.15 µM [inhibitor, partial curve, poor fit].
For `CC(NC(=O)CN1C(=O)c2ccccc2C1=O)c1ccccc1` (stereo not given), the Potency was inconclusive: 9.28 µM [inhibitor, partial curve].
In the case of `Cc1ccc(CN(CC(=O)NCCc2ccccc2)C(=O)c2csnn2)cc1`, the Potency is reported as inconclusive: 14.7 µM [inhibitor, single point].
For `O=C(N/N=C/c1cccc([N+](=O)[O-])c1)C1CC(=O)N(c2ccc(Br)cc2)C1` (stereo not given), the Potency was inconclusive: 10.4 µM [inhibitor, partial curve, poor fit].
For `C=CCNC(=O)/C(C#N)=C/c1c(N2CCN(c3ccc(OC)cc3)CC2)nc2c(C)cccn2c1=O`, the Potency was inconclusive: 9.28 µM [inhibitor, single point].
In the case of `CC(Oc1ccc(Br)cc1)C(=O)N1CCC(C(N)=O)CC1` (stereo not given), the “activity change, negative = inhibition” value is reported as inactive: 30.9%.
For `CCN(CC)S(=O)(=O)c1ccc(/C=C/C(=O)Nc2ccccc2N2CCOCC2)cc1`, the Potency was inconclusive: 0.294 µM [inhibitor, full curve, poor fit].
For `COc1ccc(C(CNC(=O)CCNC(=O)c2ccc(Br)cc2)N2CCOCC2)cc1` (stereo not given), the Potency was inconclusive: 10.4 µM [inhibitor, single point].
In the case of `CCOCc1c(C(=O)NC2CCCCCC2)oc2ccccc12`, the “activity change, negative = inhibition” value is reported as inactive: -5.78%.
In the case of `CCOC(=O)N1CCN(C(=S)Nc2cccc(C)c2C)CC1`, the Potency is reported as inconclusive: 9.28 µM [inhibitor, single point].
In the case of `Cc1sc2ncn(CC(=O)Nc3ccccc3F)c(=O)c2c1-c1ccccc1`, the “activity change, negative = inhibition” value is reported as inactive: 0.86%.
With `CCOC(=O)C1(CC2CC2)CCN(C(=O)c2ocnc2C)CC1` the “activity change, negative = inhibition” value was inactive: -0.986%.
With `CC(=O)C1=C(O)CC(c2ccccc2)CC1=NCCc1c(C)[nH]c2ccc(C)cc12` (stereo not given) the Potency was inconclusive: 13.1 µM [inhibitor, partial curve, poor fit].
